PubChem BioAssay AID504804 | Drosophila RNAi Screening Center | 2011
The deposit covers about 19,000 reagents; this is an unselected part of those with a known target gene and a result. Over the whole deposit, 47 (0.25%) were called active. 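Signals are raw, not normalised; exact z-scores behind calls not deposited; actives needed confirmation, so some wells reaching 2 SD are inactive.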 Unmarked entries are inactive. The numbers tell different reagents against one gene apart. Names joined by + are all predicted targets of the reagent.

Test: 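Knock-downs shielding fly cells from apoptosis caused by DNA damage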 (primary screen)
Cells: Drosophila Kc cells
Knock-down reagent: long dsRNA against Drosophila genes, 0.5 µg dsRNA per well
Duration: 96 h (48 h knock-down, then 48 h drug)
Treatment: doxorubicin 5 µg/ml for 48 h, added 48 h after dsRNA
Detection: 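Viability measured as cellular ATP by luminescence after 48 h knock-down then 48 h doxorubicin at 5 µg/ml; unnormalised plate counts for each replicate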
Direction: raw ATP luminescence: higher = more viable cells, protection from doxorubicin
Rule for the call: 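Active when both duplicate wells lie at least 2 SD above the plate mean and protection is confirmed by rescreening and independent dsRNAs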

Gene	reagent	raw ATP luminescence, replicate 1	raw ATP luminescence, replicate 2
CG15571	1	47310	54740
Glo1 (Glyoxalase 1)	1	69930	76967
WDR79 (WD repeat domain 79)	1	1.04e5	61690
CG13814 (retired record)	1	67720	66787
Rpn11 (Regulatory particle non-ATPase 11)	1	31070	29217
CG8042	1	39313	33140
Rab10	1	2.71e5	2.76e5
Su(var)2-10 (Suppressor of variegation 2-10)	1	66823	65327
CG9222	1	38830	21330
P32	1	53427	62753
Tspo (Translocator protein)	1	1.18e5	67373
eater	1	49920	42120
Ccn	1	84247	88017
Ccn	2	83183	68863
Ccn	3	24557	23597
Ccn	4	57480	46753
Rga (Regena)	1	58090	61440
beat-IV (beaten path IV)	1	35427	23447
beat-IV (beaten path IV)	2	66400	74540
TTLL3A (Tubulin tyrosine ligase-like 3A)	1	26767	25113
Or30a (Odorant receptor 30a)	1	41490	60723
CG16989	1	43690	58890
CG11384	1	57380	63520
CG9143	1	60400	67030
CG8950	1	68560	72450
Kcmf1 (Potassium channel modulatory factor 1)	1	78707	28953
CG14736	1	23183	55100
Act5C (Actin 5C)	1	43100	45230

The list goes on; the last 5 above are carried over.
Gene	reagent	raw ATP luminescence, replicate 1	raw ATP luminescence, replicate 2
CG9143	1	60400	67030
CG8950	1	68560	72450
Kcmf1 (Potassium channel modulatory factor 1)	1	78707	28953
CG14736	1	23183	55100
Act5C (Actin 5C)	1	43100	45230
RpL29 (Ribosomal protein L29)	1	66080	59420
Targ3 (Terminal ADP-ribose protein glycohydrolase 3)	1	48543	79067
CG12702	1	2.82e5	2.39e5
CG32719	1	2.56e5	2.49e5
LanB1	1	1.14e5	57793
l(2)k09848 (lethal (2) k09848)	1	61467	65963
atl (atlastin)	1	57823	50757
Not3 (CCR4-NOT transcription complex subunit 3)	1	1.02e5	75087
CG9410 + CG15908	1	45043	63507
CG9410 + CG15908	2	56220	51467
ND-13B (NADH dehydrogenase (ubiquinone) 13 kDa B subunit)	1	78490	68783
Nplp3 (Neuropeptide-like precursor 3)	1	71317	49313
CG4752	1	21890	66707
hgo (homogentisate 1,2-dioxygenase)	1	39187	69953
AcCoAS (Acetyl Coenzyme A synthase)	1	65287	71353
AcCoAS (Acetyl Coenzyme A synthase)	2	20603	26550
Hydr2 (alpha/beta hydrolase2)	1	1.17e5	78380
TrpA1 (Transient receptor potential cation channel A1)	1	78757	83420
CG32091	1	81977	52153
CG32091	2	73403	57580
CG4653	1	2.19e5	2.01e5
CG14572	1	65657	75157
janB (janus B)	1	49700	45520
CG5708	1	62223	80847
Cyp4e3 (Cytochrome P450 4e3)	1	35127	63693
CG7011 + Prp31	1	23753	21087
Dys + snoRNA:Me18S-A1374	1	38260	45190
AsnRS (Asparaginyl-tRNA synthetase)	1	74737	51960
Ir40a (Ionotropic receptor 40a)	1	68187	53867
Ir40a (Ionotropic receptor 40a)	2	62523	67343
CG5953	1	2.12e5	2.39e5
CG5953	2	19277	24437
CG3611	1	37790	59593
Top3alpha (Topoisomerase 3alpha)	1	75470	55127
CG30411	1	87503	88440
CG32511 (retired record)	1	1.96e5	2.13e5
mRpL15 (mitochondrial ribosomal protein L15)	1	23437	23750
Vps16B (Vacuolar protein sorting 16B)	1	67210	42850
CG3473	1	52523	59133
PIG-F (Phosphatidylinositol glycan anchor biosynthesis class F)	1	70127	74573
CCHa1 (CCHamide-1)	1	41880	37740
PI31 (Proteasome inhibitor 31 kDa)	1	62357	53910
CG4836	1	41483	46870
CG8032	1	69570	70713
Kaz-m1 (Kazal-type protease inhibitor m1)	1	59550	72660
Pstk + Tim9b	1	3.45e5	2.73e5
CG32240	1	1.60e5	1.14e5
CG42331	1	2.14e5	1.87e5
CG42331	2	70060	67330
dpr19 (defective proboscis extension response 19)	1	48373	58103
TyrRS (Tyrosyl-tRNA synthetase)	1	22217	27077
CG15923	1	35840	37573
Obp19a (Odorant-binding protein 19a)	1	3.18e5	3.09e5
CG34435	1	26370	43470
Pka-R1 (Protein kinase, cAMP-dependent, regulatory subunit type 1)	1	20570	17827
Pka-R1 (Protein kinase, cAMP-dependent, regulatory subunit type 1)	2	14570	15940
